These are yes or no findings as the source states them, for the method shown.
Columns and labels:
Test in all cases: SEC; truncation mutants of gp105, purified as the wild type, Superose 6 Increase 10/300 GL in buffer B (20 mM HEPES pH 7.5, 150 mM NaCl); self-association; both purified
[1] = biological target: gp105Δ(CTS 578–631) (Pseudomonas phage 201phi2-1) (UniProt B3FIW8)
[2] = biological target: gp105Δ(NTS 1–60, CTS 578–631) (Pseudomonas phage 201phi2-1) (UniProt B3FIW8)
[3] = biological target: gp105Δ(NTS 1–60, loop 279–285, CTS 578–631) (Pseudomonas phage 201phi2-1) (UniProt B3FIW8)
[4] = biological target: gp105Δ(NTS 1–60, loop 279–285, loop 302–322, CTS 578–631) (Pseudomonas phage 201phi2-1) (UniProt B3FIW8)
[5] = biological target: gp105Δ(NTS 1–60, loop 302–322, CTS 578–631) (Pseudomonas phage 201phi2-1) (UniProt B3FIW8)

Amino acid sequences for entries named in this document (tags omitted). A change or cut given only in a name is not applied to a line headed by its entry.
UniProt B3FIW8: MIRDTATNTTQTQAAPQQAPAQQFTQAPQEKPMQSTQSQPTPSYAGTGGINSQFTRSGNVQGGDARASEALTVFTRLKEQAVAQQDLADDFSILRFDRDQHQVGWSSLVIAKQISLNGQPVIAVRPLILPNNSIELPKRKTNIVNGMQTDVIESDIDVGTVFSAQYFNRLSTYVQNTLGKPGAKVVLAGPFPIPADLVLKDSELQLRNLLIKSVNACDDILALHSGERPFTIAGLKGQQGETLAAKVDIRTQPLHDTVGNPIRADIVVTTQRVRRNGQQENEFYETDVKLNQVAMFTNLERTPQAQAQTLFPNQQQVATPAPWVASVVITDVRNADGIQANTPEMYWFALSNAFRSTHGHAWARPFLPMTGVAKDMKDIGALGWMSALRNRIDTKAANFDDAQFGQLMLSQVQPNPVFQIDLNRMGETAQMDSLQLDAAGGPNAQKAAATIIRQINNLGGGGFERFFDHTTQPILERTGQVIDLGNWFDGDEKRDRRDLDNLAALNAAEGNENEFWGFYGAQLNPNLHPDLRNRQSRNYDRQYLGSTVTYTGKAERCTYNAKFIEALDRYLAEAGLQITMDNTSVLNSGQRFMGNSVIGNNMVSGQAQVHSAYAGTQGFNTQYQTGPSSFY

## gp105Δ(CTS 578–631) (from UniProt B3FIW8 1-577) (domain or fragment)
[1]
  binding: no binding

## gp105Δ(NTS 1–60, CTS 578–631) (from UniProt B3FIW8 61-577) (domain or fragment)
[2]
  binding: no binding

## gp105Δ(NTS 1–60, loop 279–285, CTS 578–631) (from UniProt B3FIW8 61-577) (domain or fragment)
[3]
  binding: no binding

## gp105Δ(NTS 1–60, loop 279–285, loop 302–322, CTS 578–631) (from UniProt B3FIW8 61-577) (domain or fragment)
[4]
  binding: no binding

## gp105Δ(NTS 1–60, loop 302–322, CTS 578–631) (from UniProt B3FIW8 61-577) (domain or fragment)
[5]
  binding: no binding

Source: PMC10149743, “Structural studies of the nucleus-like assembly of jumbo bacteriophage 201φ2-1” (Frontiers in Microbiology, 2023)
